Test results published in ChEMBL document CHEMBL3085714 (J Med Chem, 2013).
Further values from the same series stand in other lists.

Experiments:
Homo sapiens [1] = organism: Homo sapiens; test: Selectivity for p38alpha MAP kinase (unknown origin) over PAK3 (unknown origin)
Homo sapiens [2] = organism: Homo sapiens; test: Selectivity for p38alpha MAP kinase (unknown origin) over MARK1 (unknown origin)
Homo sapiens [3] = organism: Homo sapiens; test: Selectivity for p38alpha MAP kinase (unknown origin) over MEKK3 (unknown origin)
Homo sapiens [4] = organism: Homo sapiens; test: Selectivity for p38alpha MAP kinase (unknown origin) over TYK2 (unknown origin)
Homo sapiens [5] = organism: Homo sapiens; test: Selectivity for p38alpha MAP kinase (unknown origin) over NEK11 (unknown origin)
Homo sapiens [6] = organism: Homo sapiens; test: Selectivity for p38alpha MAP kinase (unknown origin) over wild type PDGFR-alpha (unknown origin)
Homo sapiens [7] = organism: Homo sapiens; test: Selectivity for p38alpha MAP kinase (unknown origin) over EPHA5 (unknown origin)
Homo sapiens [8] = organism: Homo sapiens; test: Selectivity for p38alpha MAP kinase (unknown origin) over VRK1 (unknown origin)
Homo sapiens [9] = organism: Homo sapiens; test: Selectivity for p38alpha MAP kinase (unknown origin) over LIMK1 (unknown origin)
Homo sapiens [10] = organism: Homo sapiens; test: Selectivity for p38alpha MAP kinase (unknown origin) over EPHA2 (unknown origin)
Homo sapiens [11] = organism: Homo sapiens; test: Selectivity for p38alpha MAP kinase (unknown origin) over MKNK2 (unknown origin)
Homo sapiens [12] = organism: Homo sapiens; test: Selectivity for p38alpha MAP kinase (unknown origin) over HRI (unknown origin)
Homo sapiens [13] = organism: Homo sapiens; test: Selectivity for p38alpha MAP kinase (unknown origin) over SNARK (unknown origin)
Homo sapiens [14] = organism: Homo sapiens; test: Selectivity for p38alpha MAP kinase (unknown origin) over Aurora-C (unknown origin)
Homo sapiens [15] = organism: Homo sapiens; test: Selectivity for p38alpha MAP kinase (unknown origin) over LRRK2 G2019S mutant (unknown origin)
Homo sapiens [16] = organism: Homo sapiens; test: Selectivity for p38alpha MAP kinase (unknown origin) over KIT T670I mutant (unknown origin)
Homo sapiens [17] = organism: Homo sapiens; test: Selectivity for p38alpha MAP kinase (unknown origin) over PRK2 (unknown origin)
Homo sapiens [18] = organism: Homo sapiens; test: Selectivity for p38alpha MAP kinase (unknown origin) over TRK-A (unknown origin)
Homo sapiens [19] = organism: Homo sapiens; test: Selectivity for p38alpha MAP kinase (unknown origin) over HIPK4 (unknown origin)
Homo sapiens [20] = organism: Homo sapiens; test: Selectivity for p38alpha MAP kinase (unknown origin) over GRK3 (unknown origin)
Homo sapiens [21] = organism: Homo sapiens; test: Selectivity for p38alpha MAP kinase (unknown origin) over CK1-gamma1 (unknown origin)
Homo sapiens [22] = organism: Homo sapiens; test: Selectivity for p38alpha MAP kinase (unknown origin) over CDK6/CycD1 (unknown origin)
Homo sapiens [23] = organism: Homo sapiens; test: Selectivity for p38alpha MAP kinase (unknown origin) over PIM2 (unknown origin)
Homo sapiens [24] = organism: Homo sapiens; test: Selectivity for p38alpha MAP kinase (unknown origin) over PRKX (unknown origin)
Homo sapiens [25] = organism: Homo sapiens; test: Selectivity for p38alpha MAP kinase (unknown origin) over p38-delta (unknown origin)
Homo sapiens [26] = organism: Homo sapiens; test: Selectivity for p38alpha MAP kinase (unknown origin) over LTK (unknown origin)
Homo sapiens [27] = organism: Homo sapiens; test: Selectivity for p38alpha MAP kinase (unknown origin) over CDK5/p35NCK (unknown origin)
Homo sapiens [28] = organism: Homo sapiens; test: Selectivity for p38alpha MAP kinase (unknown origin) over NLK (unknown origin)
Homo sapiens [29] = organism: Homo sapiens; test: Selectivity for p38alpha MAP kinase (unknown origin) over GRK6 (unknown origin)
Homo sapiens [30] = organism: Homo sapiens; test: Selectivity for p38alpha MAP kinase (unknown origin) over BLK (unknown origin)
Homo sapiens [31] = organism: Homo sapiens; test: Selectivity for p38alpha MAP kinase (unknown origin) over SLK (unknown origin)
Homo sapiens [32] = organism: Homo sapiens; test: Selectivity for p38alpha MAP kinase (unknown origin) over BRSK1 (unknown origin)
Homo sapiens [33] = organism: Homo sapiens; test: Selectivity for p38alpha MAP kinase (unknown origin) over FGFR3 K650E mutant (unknown origin)
Homo sapiens [34] = organism: Homo sapiens; test: Selectivity for p38alpha MAP kinase (unknown origin) over CDK1/CycE (unknown origin)
Homo sapiens [35] = organism: Homo sapiens; test: Selectivity for p38alpha MAP kinase (unknown origin) over wild type KIT (unknown origin)
Homo sapiens [36] = organism: Homo sapiens; test: Selectivity for p38alpha MAP kinase (unknown origin) over AMPK alpha1 (unknown origin)
Homo sapiens [37] = organism: Homo sapiens; test: Selectivity for p38alpha MAP kinase (unknown origin) over CAMK2D (unknown origin)
Homo sapiens [38] = organism: Homo sapiens; test: Selectivity for p38alpha MAP kinase (unknown origin) over MET Y1235D mutant (unknown origin)
Homo sapiens [39] = organism: Homo sapiens; test: Selectivity for p38alpha MAP kinase (unknown origin) over EGFR 752 to 759 deletion mutant (unknown origin)
Homo sapiens [40] = organism: Homo sapiens; test: Selectivity for p38alpha MAP kinase (unknown origin) over MYLK (unknown origin)
Homo sapiens [41] = organism: Homo sapiens; test: Selectivity for p38alpha MAP kinase (unknown origin) over PIM3 (unknown origin)
Homo sapiens [42] = organism: Homo sapiens; test: Selectivity for p38alpha MAP kinase (unknown origin) over EIF2AK3 (unknown origin)
Homo sapiens [43] = organism: Homo sapiens; test: Selectivity for p38alpha MAP kinase (unknown origin) over PRK1 (unknown origin)
Homo sapiens [44] = organism: Homo sapiens; test: Selectivity for p38alpha MAP kinase (unknown origin) over MKK6 S207D/T211D double mutant (unknown origin)
Homo sapiens [45] = organism: Homo sapiens; test: Selectivity for p38alpha MAP kinase (unknown origin) over EPHA4 (unknown origin)
Homo sapiens [46] = organism: Homo sapiens; test: Selectivity for p38alpha MAP kinase (unknown origin) over RPS6KA4 (unknown origin)
Homo sapiens [47] = organism: Homo sapiens; test: Selectivity for p38alpha MAP kinase (unknown origin) over NEK3 (unknown origin)
Homo sapiens [48] = organism: Homo sapiens; test: Selectivity for p38alpha MAP kinase (unknown origin) over PAK4 (unknown origin)
Homo sapiens [49] = organism: Homo sapiens; test: Selectivity for p38alpha MAP kinase (unknown origin) over PKC-delta (unknown origin)
Homo sapiens [50] = organism: Homo sapiens; test: Selectivity for p38alpha MAP kinase (unknown origin) over CDK3/CycE (unknown origin)
Homo sapiens [51] = organism: Homo sapiens; test: Selectivity for p38alpha MAP kinase (unknown origin) over AKT2 (unknown origin)
Homo sapiens [52] = organism: Homo sapiens; test: Selectivity for p38alpha MAP kinase (unknown origin) over CDK9/CycT (unknown origin)
Homo sapiens [53] = organism: Homo sapiens; test: Selectivity for p38alpha MAP kinase (unknown origin) over MKNK1 (unknown origin)
Homo sapiens [54] = organism: Homo sapiens; test: Selectivity for p38alpha MAP kinase (unknown origin) over NEK6 (unknown origin)
Homo sapiens [55] = organism: Homo sapiens; test: Selectivity for p38alpha MAP kinase (unknown origin) over ACV-R1 (unknown origin)
Homo sapiens [56] = organism: Homo sapiens; test: Selectivity for p38alpha MAP kinase (unknown origin) over MAPKAPK2 (unknown origin)
Homo sapiens [57] = organism: Homo sapiens; test: Selectivity for p38alpha MAP kinase (unknown origin) over ABL1 Y253F mutant (unknown origin)
Homo sapiens [58] = organism: Homo sapiens; test: Selectivity for p38alpha MAP kinase (unknown origin) over wild-type B-RAF (unknown origin)
Homo sapiens [59] = organism: Homo sapiens; test: Selectivity for p38alpha MAP kinase (unknown origin) over PAK7 (unknown origin)
Homo sapiens [60] = organism: Homo sapiens; test: Selectivity for p38alpha MAP kinase (unknown origin) over DYRK3 (unknown origin)
Homo sapiens [61] = organism: Homo sapiens; test: Selectivity for p38alpha MAP kinase (unknown origin) over ERK2 (unknown origin)
Homo sapiens [62] = organism: Homo sapiens; test: Selectivity for p38alpha MAP kinase (unknown origin) over PKC-theta (unknown origin)
Homo sapiens [63] = organism: Homo sapiens; test: Selectivity for p38alpha MAP kinase (unknown origin) over SRPK2 (unknown origin)
Homo sapiens [64] = organism: Homo sapiens; test: Selectivity for p38alpha MAP kinase (unknown origin) over AKT1 (unknown origin)

Selectivity ratio (Homo sapiens [1]): > 1000
Selectivity ratio (Homo sapiens [2]): > 1000
Selectivity ratio (Homo sapiens [3]): > 1000
Selectivity ratio (Homo sapiens [4]): > 1000
Selectivity ratio (Homo sapiens [5]): > 1000
Selectivity ratio (Homo sapiens [6]): > 1000
Selectivity ratio (Homo sapiens [7]): > 1000
Selectivity ratio (Homo sapiens [8]): > 1000
Selectivity ratio (Homo sapiens [9]): > 1000
Selectivity ratio (Homo sapiens [10]): > 1000
Selectivity ratio (Homo sapiens [11]): > 1000
Selectivity ratio (Homo sapiens [12]): > 1000
Selectivity ratio (Homo sapiens [13]): > 1000
Selectivity ratio (Homo sapiens [14]): > 1000
Selectivity ratio (Homo sapiens [15]): > 1000
Selectivity ratio (Homo sapiens [16]): > 1000
Selectivity ratio (Homo sapiens [17]): > 1000
Selectivity ratio (Homo sapiens [18]): > 1000
Selectivity ratio (Homo sapiens [19]): > 1000
Selectivity ratio (Homo sapiens [20]): > 1000
Selectivity ratio (Homo sapiens [21]): > 1000
Selectivity ratio (Homo sapiens [22]): > 1000
Selectivity ratio (Homo sapiens [23]): > 1000
Selectivity ratio (Homo sapiens [24]): > 1000
Selectivity ratio (Homo sapiens [25]): > 1000
Selectivity ratio (Homo sapiens [26]): > 1000
Selectivity ratio (Homo sapiens [27]): > 1000
Selectivity ratio (Homo sapiens [28]): > 1000
Selectivity ratio (Homo sapiens [29]): > 1000
Selectivity ratio (Homo sapiens [30]): > 1000
Selectivity ratio (Homo sapiens [31]): > 1000
Selectivity ratio (Homo sapiens [32]): > 1000
Selectivity ratio (Homo sapiens [33]): > 1000
Selectivity ratio (Homo sapiens [34]): > 1000
Selectivity ratio (Homo sapiens [35]): > 1000
Selectivity ratio (Homo sapiens [36]): > 1000
Selectivity ratio (Homo sapiens [37]): > 1000
Selectivity ratio (Homo sapiens [38]): > 1000
Selectivity ratio (Homo sapiens [39]): > 1000
Selectivity ratio (Homo sapiens [40]): > 1000
Selectivity ratio (Homo sapiens [41]): > 1000
Selectivity ratio (Homo sapiens [42]): > 1000
Selectivity ratio (Homo sapiens [43]): > 1000
Selectivity ratio (Homo sapiens [44]): > 1000
Selectivity ratio (Homo sapiens [45]): > 1000
Selectivity ratio (Homo sapiens [46]): > 1000
Selectivity ratio (Homo sapiens [47]): > 1000
Selectivity ratio (Homo sapiens [48]): > 1000
Selectivity ratio (Homo sapiens [49]): > 1000
Selectivity ratio (Homo sapiens [50]): > 1000
Selectivity ratio (Homo sapiens [51]): > 1000
Selectivity ratio (Homo sapiens [52]): > 1000
Selectivity ratio (Homo sapiens [53]): > 1000
Selectivity ratio (Homo sapiens [54]): > 1000
Selectivity ratio (Homo sapiens [55]): > 1000
Selectivity ratio (Homo sapiens [56]): > 1000
Selectivity ratio (Homo sapiens [57]): > 1000
Selectivity ratio (Homo sapiens [58]): > 1000
Selectivity ratio (Homo sapiens [59]): > 1000
Selectivity ratio (Homo sapiens [60]): > 1000
Selectivity ratio (Homo sapiens [61]): > 1000
Selectivity ratio (Homo sapiens [62]): > 1000
Selectivity ratio (Homo sapiens [63]): > 1000
Selectivity ratio (Homo sapiens [64]): > 1000
SMILES: Cc1cc(F)c(NC(=O)c2ccsc2)cc1Nc1ccc2c(c1)OCc1ccc(OC[C@H](O)CO)cc1C2=O
